## Screening data, single-dose tests

Protein sequences, listed by entry. Tags and fused reporters are not part of them.
UniProt P9WNZ1, whole entry: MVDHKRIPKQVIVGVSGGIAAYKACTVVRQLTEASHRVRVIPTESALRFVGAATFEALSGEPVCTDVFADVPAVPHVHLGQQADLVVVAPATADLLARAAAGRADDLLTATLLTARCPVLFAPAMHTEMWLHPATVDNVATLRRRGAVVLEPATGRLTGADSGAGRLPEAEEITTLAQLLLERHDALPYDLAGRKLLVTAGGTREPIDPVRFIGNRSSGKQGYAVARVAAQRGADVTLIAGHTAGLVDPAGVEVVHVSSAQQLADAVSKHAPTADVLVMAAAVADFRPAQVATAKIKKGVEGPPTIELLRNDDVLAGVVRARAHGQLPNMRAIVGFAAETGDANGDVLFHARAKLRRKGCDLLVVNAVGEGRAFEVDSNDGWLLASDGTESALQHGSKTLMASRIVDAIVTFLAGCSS
UniProt P9WFT3, whole entry: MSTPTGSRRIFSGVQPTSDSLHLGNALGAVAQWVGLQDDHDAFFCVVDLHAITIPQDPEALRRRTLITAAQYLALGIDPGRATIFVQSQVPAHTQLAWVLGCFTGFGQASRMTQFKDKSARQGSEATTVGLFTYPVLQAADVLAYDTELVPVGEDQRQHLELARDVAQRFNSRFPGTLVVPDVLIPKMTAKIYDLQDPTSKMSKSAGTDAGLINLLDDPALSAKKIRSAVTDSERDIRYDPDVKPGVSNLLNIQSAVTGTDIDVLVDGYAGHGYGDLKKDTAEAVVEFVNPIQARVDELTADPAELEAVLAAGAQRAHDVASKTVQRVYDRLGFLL

Data taken from ChEMBL document CHEMBL3988442, “University of Dundee, Small-Polar-MMV Screening Library” (2021).

CoaBC: 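Enzyme assay of CoaBC with a phosphate dye (Biomol Green) read at 650 nm. Target: Coenzyme A biosynthesis protein CoaBC, Mycobacterium tuberculosis (UniProt P9WNZ1). Tested at 30 µM. Higher reads as stronger inhibition, judged from the few compounds that gave an IC50. Most strong results did not repeat in a second test. Of about 67,000 compounds tested this way, about 40 (0.06%) reached 50% or more in at least one test.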
MtTrpRS: 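Tryptophan-tRNA ligase, Mycobacterium tuberculosis (UniProt P9WFT3). Enzyme assay of tryptophanyl-tRNA synthetase; the read-out is not stated. Tested at 10 µM. Higher most likely means stronger inhibition; the record gives no direction and few retests gave an IC50. Size under these conditions: about 65,000 compounds, about 64 of them at 50% or above in at least one test.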

Results are given as percent effect. The controls that fix the scale are not given in the record; negative values are as filed. This is an unselected part of the compounds tested.

Cn1cccc1C(=O)NC(C)(C(N)=O)c1cccc(Cl)c1 (centres undefined) gave CoaBC: 0.3841%; MtTrpRS: 4.37%.
CC(C)(N)c1cn(C2CCN(C(=O)CCC3CCCCC3)CC2)nn1 gave CoaBC: 2.609%; MtTrpRS: -4.342%.
c1csc(-c2nc(CN3CCN(c4cnccn4)CC3)co2)c1 gave CoaBC: 9.613%; MtTrpRS: -2.502%.
C[C@H]1CN(C(=O)c2cccc(F)c2Cl)CCN1S(C)(=O)=O gave CoaBC: -0.6402%; MtTrpRS: 1.028%.
CC(C)(C)OC(=O)N1CSC[C@@H]1C(=O)NCc1ccncc1 gave CoaBC: 1.499%; MtTrpRS: -1.571%.
O=C(c1ccccn1)N1CCc2nc(-c3cnccn3)nc(O)c2C1 gave CoaBC: -0.5556%; MtTrpRS: -0.7525%.
Cc1noc(C)c1S(=O)(=O)N1CCC(Oc2cnccn2)CC1 gave CoaBC: 12.05%; MtTrpRS: 7.219%.
Cc1ccc2nc(NCCN3CCOCC3)n(C)c(=O)c2c1 gave CoaBC: -2.808%; MtTrpRS: -0.8396%.
c1cncc(CN2CC(Cc3nccc4cc[nH]c34)C2)c1 gave CoaBC: -1.595%; MtTrpRS: -6.078%.
COCC1c2nnn(CC3CC3)c2CCN1C(=O)c1ccncn1 (centres undefined) gave CoaBC: 17.29%; MtTrpRS: 9.261%.
Cn1c(C2CC2)nc2cc(NC(=O)C3(O)CCCC3)ccc21 gave CoaBC: 2.056%; MtTrpRS: -2.755%.
Cn1c(=O)ccn(CC(=O)N2CCCC(n3cccn3)C2)c1=O (centres undefined) gave CoaBC: 2.016%; MtTrpRS: 1.332%.
Cc1nnc(CCNC(=O)c2coc(CN3CCOCC3)c2)s1 gave CoaBC: 9.237%; MtTrpRS: 1.001%.
COc1ccccc1CC(=O)N1CCC(NCc2ccc(C)o2)CC1 gave CoaBC: 9.838%; MtTrpRS: -0.5806%.
O=C(CO)N1CCCC2(CCC(=O)N(CC3CC3)C2)C1 (centres undefined) gave CoaBC: 7.348%; MtTrpRS: 9.545%.
Cc1nc2c(c(=O)n1C)CCN(Cc1cc3ccccc3[nH]1)CC2 gave CoaBC: 8.554%; MtTrpRS: -3.865%.
COc1ccccc1C(C)(C)NC(=O)c1ccc(F)c(NC(C)=O)c1 gave CoaBC: 7.753%; MtTrpRS: 1.698%.
O=C(Nc1cccc(CNCc2cccs2)c1)C1CCCC1 gave CoaBC: 8.514%; MtTrpRS: -2.437%.
O=C(c1cccs1)N1CCc2ncc(Cn3cncn3)n2CC1 gave CoaBC: 5.25%; MtTrpRS: -0.1564%.
CNC(=O)[C@H]1C[C@@H]2CN(Cc3cccnc3OC)C[C@@H]2N1C(C)=O gave CoaBC: -0.7059%; MtTrpRS: 2.322%.
COC(=O)CCNC(=O)c1cccc(C(=O)N(C)c2ccccc2)c1 gave CoaBC: 3.045%; MtTrpRS: -3.006%.
CC(C)(NCC(=O)NCC(F)(F)F)c1ccc2c(c1)OCCO2 gave CoaBC: 2.254%; MtTrpRS: -1.8%.
CC(C)C(=O)NCc1ccc(N(C)C)cc1 gave CoaBC: 6.789%; MtTrpRS: -9.655%.
Cc1c[nH]c(C2CN(Cc3ccccc3C(=O)O)CCO2)n1 (centres undefined) gave CoaBC: 6.311%; MtTrpRS: 2.748%.
CCCNC(=O)N1CCC(c2nnc(Cn3cccn3)n2C2CC2)CC1 gave CoaBC: -0.2551%; MtTrpRS: 0.7638%.
CCN(C)C[C@@H]1CN(C(=O)c2cc(C(F)(F)F)n[nH]2)C[C@@H]1CO gave CoaBC: 7.443%; MtTrpRS: 5.148%.
c1ccc(OCc2noc(CN3CCN(C4CCCC4)CC3)n2)cc1 gave CoaBC: 4.545%; MtTrpRS: -4.907%.
c1ccn2c(C3CCCN3Cc3nc(C4CC4)no3)nnc2c1 (centres undefined) gave CoaBC: 7.654%; MtTrpRS: -0.7651%.
CN(C)Cc1cnc2n1CCN(C(=O)Cc1ccc(F)cc1)CC2 gave MtTrpRS: 3.344%.
CC1CCN(c2ccc3c(-c4ncc(C(=O)O)s4)noc3c2)CC1 gave MtTrpRS: -5.136%.
CNc1ncc2c(n1)CN(C1CCCC1)C2=O gave CoaBC: -2.079%; MtTrpRS: 4.793%.
Cc1ccnc(C2CN(Cc3cnn(-c4ccccc4C(=O)O)c3)C2)n1 gave CoaBC: 2.392%; MtTrpRS: -1.042%.
CSc1ccc(NC(=O)COCc2ccccc2)nc1 gave CoaBC: 0.9756%; MtTrpRS: -3.913%.

Repeated from the top, 3 entries:

* Cn1cccc1C(=O)NC(C)(C(N)=O)c1cccc(Cl)c1 (centres undefined) : CoaBC: 0.3841%; MtTrpRS: 4.37%
* CC(C)(N)c1cn(C2CCN(C(=O)CCC3CCCCC3)CC2)nn1 : CoaBC: 2.609%; MtTrpRS: -4.342%
* c1csc(-c2nc(CN3CCN(c4cnccn4)CC3)co2)c1 : CoaBC: 9.613%; MtTrpRS: -2.502%